Literature values in patent publication US7414051B2, “Substituted-dihydro[1,4]oxazino[2,3,4-hi]indazole derivatives as 5-hydroxytryptamine-6 ligands” (Wyeth, priority 2006, dated 2008).
At least one compound was matched to its structure with a doubt left.

Test system: 5-HT6 receptor subtype
Details: background statement; cited from earlier work

CN1CCN(C2=Nc3cc(Cl)ccc3Nc3ccccc32)CC1 [Clozapine]
affinity for the 5-HT6 receptor subtype (in words): high affinity
